From the supplement of paper PMC10849652
Some of the results follow.

Amino acid sequences for entries named in this document (tags omitted). A change or cut given only in a name is not applied to a line headed by its entry.
UniProt Q9HCN3: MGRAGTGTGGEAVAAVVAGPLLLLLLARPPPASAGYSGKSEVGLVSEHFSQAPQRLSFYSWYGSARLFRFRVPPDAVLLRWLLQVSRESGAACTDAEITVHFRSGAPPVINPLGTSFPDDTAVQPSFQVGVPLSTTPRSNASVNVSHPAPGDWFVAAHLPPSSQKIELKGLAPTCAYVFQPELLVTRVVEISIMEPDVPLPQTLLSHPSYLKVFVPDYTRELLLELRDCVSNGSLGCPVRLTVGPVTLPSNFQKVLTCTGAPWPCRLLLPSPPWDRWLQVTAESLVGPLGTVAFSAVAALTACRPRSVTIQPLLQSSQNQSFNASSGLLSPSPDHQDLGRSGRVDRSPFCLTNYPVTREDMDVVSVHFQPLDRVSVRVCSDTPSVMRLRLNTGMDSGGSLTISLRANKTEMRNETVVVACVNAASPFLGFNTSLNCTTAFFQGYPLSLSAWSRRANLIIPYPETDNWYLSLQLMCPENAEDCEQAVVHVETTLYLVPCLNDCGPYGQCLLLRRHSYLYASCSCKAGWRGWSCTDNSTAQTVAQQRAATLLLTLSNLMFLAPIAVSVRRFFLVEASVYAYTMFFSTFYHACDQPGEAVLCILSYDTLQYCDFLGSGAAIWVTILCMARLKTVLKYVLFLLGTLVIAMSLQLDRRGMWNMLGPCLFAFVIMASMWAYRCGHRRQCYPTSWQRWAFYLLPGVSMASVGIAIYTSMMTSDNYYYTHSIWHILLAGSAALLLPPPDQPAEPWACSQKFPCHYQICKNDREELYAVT
UniProt Q6UWJ1: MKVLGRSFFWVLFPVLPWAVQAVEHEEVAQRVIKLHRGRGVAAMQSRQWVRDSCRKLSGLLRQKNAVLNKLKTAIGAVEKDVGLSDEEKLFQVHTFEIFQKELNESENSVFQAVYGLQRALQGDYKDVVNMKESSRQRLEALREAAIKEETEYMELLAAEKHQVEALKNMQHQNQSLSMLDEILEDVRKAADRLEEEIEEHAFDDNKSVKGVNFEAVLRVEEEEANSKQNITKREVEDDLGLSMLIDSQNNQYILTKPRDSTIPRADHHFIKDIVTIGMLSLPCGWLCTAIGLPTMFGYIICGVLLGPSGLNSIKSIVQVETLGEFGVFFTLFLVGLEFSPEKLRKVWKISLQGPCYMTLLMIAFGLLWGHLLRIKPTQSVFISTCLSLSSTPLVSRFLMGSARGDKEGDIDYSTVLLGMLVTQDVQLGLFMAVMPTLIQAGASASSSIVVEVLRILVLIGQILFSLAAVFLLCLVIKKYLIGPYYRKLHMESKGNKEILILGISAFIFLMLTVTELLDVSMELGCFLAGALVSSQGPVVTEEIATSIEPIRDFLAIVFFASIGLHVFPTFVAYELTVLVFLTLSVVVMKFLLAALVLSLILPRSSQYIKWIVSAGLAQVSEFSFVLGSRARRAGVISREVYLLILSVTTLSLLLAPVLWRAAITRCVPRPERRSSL
UniProt Q9ULS5: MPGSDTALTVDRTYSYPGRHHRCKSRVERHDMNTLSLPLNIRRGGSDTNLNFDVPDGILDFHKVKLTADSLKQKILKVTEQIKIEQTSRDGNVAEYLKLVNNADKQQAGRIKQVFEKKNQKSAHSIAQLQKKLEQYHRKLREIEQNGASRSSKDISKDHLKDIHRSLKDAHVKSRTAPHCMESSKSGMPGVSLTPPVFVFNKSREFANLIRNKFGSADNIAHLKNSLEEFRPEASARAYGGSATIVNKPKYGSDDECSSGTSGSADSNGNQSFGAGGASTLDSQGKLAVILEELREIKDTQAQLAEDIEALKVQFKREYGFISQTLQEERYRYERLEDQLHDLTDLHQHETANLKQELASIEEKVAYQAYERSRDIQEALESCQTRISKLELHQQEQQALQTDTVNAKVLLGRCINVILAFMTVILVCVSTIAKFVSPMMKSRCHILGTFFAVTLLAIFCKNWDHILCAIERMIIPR
UniProt Q9NVA4: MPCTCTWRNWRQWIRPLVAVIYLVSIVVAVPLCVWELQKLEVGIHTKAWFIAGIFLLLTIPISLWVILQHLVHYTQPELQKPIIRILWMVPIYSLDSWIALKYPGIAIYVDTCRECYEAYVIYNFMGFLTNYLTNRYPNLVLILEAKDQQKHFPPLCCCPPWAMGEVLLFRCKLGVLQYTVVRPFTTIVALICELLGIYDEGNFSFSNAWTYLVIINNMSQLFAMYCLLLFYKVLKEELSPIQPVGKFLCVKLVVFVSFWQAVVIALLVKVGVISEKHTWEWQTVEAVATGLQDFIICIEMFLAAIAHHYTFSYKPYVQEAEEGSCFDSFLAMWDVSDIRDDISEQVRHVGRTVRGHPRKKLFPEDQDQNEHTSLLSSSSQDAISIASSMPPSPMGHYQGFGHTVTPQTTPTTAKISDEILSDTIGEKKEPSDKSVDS
UniProt O76062: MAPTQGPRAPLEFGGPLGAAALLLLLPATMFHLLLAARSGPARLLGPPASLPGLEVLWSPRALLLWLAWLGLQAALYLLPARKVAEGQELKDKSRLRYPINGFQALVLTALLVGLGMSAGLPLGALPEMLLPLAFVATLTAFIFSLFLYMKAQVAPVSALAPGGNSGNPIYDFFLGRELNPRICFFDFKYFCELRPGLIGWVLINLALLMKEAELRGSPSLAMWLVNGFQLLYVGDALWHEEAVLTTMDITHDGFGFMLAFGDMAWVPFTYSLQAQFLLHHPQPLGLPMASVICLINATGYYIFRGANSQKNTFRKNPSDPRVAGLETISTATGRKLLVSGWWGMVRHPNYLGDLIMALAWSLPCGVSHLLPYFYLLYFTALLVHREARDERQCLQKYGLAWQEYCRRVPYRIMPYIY
UniProt Q9BXS4: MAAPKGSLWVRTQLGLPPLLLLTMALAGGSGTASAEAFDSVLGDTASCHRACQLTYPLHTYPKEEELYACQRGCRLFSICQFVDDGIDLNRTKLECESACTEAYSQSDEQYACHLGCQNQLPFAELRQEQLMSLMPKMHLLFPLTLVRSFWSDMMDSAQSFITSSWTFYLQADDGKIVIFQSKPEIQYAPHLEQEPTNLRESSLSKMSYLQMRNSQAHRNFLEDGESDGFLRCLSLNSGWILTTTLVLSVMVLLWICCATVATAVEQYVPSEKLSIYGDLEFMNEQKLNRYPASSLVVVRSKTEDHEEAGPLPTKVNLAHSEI
UniProt P62328: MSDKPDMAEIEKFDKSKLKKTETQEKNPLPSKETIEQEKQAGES
UniProt Q08117: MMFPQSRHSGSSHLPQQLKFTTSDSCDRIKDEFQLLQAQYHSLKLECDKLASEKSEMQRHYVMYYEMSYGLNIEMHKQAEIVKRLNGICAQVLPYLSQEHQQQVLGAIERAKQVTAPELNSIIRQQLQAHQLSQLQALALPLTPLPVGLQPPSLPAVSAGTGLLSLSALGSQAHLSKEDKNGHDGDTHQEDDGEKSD
UniProt Q6UW68: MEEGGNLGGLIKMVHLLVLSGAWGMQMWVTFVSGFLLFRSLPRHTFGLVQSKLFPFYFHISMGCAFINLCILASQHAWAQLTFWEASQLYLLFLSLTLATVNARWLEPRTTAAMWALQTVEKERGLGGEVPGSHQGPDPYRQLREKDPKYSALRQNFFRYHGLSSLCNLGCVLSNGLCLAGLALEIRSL
UniProt Q5SNT2: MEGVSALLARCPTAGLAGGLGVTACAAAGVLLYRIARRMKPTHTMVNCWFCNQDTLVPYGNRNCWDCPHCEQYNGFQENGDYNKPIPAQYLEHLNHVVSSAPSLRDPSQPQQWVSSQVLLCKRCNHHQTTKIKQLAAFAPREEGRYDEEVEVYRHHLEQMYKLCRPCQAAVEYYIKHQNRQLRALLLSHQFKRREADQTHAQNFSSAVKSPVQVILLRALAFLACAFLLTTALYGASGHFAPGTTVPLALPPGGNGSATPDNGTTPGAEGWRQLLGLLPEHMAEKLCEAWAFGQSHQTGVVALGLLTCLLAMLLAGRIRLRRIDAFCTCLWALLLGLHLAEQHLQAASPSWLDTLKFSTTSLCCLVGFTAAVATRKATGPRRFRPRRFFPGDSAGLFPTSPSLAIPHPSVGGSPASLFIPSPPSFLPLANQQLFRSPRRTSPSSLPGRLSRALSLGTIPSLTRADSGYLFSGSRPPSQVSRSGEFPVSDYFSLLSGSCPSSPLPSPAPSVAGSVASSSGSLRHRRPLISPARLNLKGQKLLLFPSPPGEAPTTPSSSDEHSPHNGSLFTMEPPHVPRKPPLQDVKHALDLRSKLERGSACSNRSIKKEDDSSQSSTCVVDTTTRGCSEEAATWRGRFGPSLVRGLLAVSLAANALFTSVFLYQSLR
UniProt Q9Y2Y6: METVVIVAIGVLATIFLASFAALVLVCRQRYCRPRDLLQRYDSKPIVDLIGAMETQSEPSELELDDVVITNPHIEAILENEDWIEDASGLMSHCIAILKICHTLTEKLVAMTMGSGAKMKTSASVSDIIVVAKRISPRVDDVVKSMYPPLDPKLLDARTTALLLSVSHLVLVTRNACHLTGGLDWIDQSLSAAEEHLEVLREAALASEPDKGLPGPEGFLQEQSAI
UniProt O00206, whole entry, looked up: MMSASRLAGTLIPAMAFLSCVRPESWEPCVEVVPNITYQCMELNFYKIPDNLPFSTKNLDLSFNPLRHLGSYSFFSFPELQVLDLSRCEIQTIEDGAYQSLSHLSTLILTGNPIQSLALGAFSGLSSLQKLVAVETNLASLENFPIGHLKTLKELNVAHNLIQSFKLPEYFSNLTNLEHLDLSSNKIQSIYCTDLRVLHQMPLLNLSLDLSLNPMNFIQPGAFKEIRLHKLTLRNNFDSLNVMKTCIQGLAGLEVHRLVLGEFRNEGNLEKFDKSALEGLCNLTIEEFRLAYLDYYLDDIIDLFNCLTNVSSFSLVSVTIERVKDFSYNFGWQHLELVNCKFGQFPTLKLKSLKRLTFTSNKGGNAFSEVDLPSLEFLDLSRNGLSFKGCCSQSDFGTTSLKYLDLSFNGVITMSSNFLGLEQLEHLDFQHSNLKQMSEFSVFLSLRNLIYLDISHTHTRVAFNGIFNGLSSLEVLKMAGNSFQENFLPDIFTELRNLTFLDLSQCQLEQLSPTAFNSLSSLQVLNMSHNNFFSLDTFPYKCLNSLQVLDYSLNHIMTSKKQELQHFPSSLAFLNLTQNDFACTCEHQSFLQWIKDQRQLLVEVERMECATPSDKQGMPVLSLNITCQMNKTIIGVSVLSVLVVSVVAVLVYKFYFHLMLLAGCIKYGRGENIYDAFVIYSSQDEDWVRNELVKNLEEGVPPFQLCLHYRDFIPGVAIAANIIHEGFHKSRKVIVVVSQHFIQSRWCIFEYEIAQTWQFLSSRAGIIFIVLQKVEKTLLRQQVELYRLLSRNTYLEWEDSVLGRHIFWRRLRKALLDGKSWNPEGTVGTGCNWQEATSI

Each target was assayed with C1=CC=C(C=C1)C2=NC(=C(N2)C3=CC=NC=C3)C4=CC(=C(C=C4)Cl)O (assay: log2 fold change, soluble protein after heating vs DMSO (PISA); higher = thermal stabilisation; K562 cells, 10 uM, 30 min; active = over 0.2 and 3.5 SD of the protein, either way, in both replicates (recomputed)).
Procedure, shortened: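 For each measurement, 10 μM compound was applied for 30 min to K562 cells at 2×10^6 cells/mL. Aliquots were heated for 3 min across 48°C-58°C, pooled, and extracted in PBS with 0.5% NP-40 at 4°C; the supernatant after 21,000xg for 90 min was soluble protein. This was quantified by TMTpro 16plex LC-MS/MS with channel sums equalised, and thermal stability was reported relative to control samples from duplicates, on a log2 fold-change scale.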

log2 fold change, inactive:
TMEM8A (UniProt Q9HCN3) 0.124
TMCO3 (UniProt Q6UWJ1) 0.139
TMCC3 (UniProt Q9ULS5) 0.122
TMEM184C (UniProt Q9NVA4) -0.047
TM7SF2 (UniProt O76062) -0.151
TMEM59 (UniProt Q9BXS4) 0.196
TMSB4X (UniProt P62328) 0.112
TLE5 isoform 2 (UniProt Q08117) 0.016
TMEM205 (UniProt Q6UW68) 0.079
TMEM167B (UniProt Q9NRX6) -0.036
TMEM201 (UniProt Q5SNT2) 0.054
TMEM98 (UniProt Q9Y2Y6) -0.153
TLR4 (UniProt O00206) 0.051

Reprinted at random: 2 entries already listed.
log2 fold change, inactive:
TMEM59 (UniProt Q9BXS4) 0.196
TMEM184C (UniProt Q9NVA4) -0.047
